Values after ≈ are worked out from the molar mass of the structure shown.
Columns and labels:
Assay in all cases: Antibacterial microdilution broth (EUCAST)
Format in all cases: cell-based
[1] = test system: Pseudomonas aeruginosa CCM 3955 (ATCC 27853); settings: P. aeruginosa CCM 3955, 24 h, read-out: MIC (visual detection)
[2] = test system: Staphylococcus aureus subsp. aureus CCM 4223 (ATCC 29213); settings: S. aureus CCM 4223, 95% growth inhibition, 24 h, read-out: MIC (spectrophotometric detection, 530 nm)
[3] = test system: Klebsiella pneumoniae CCM 4415 (ATCC 10031); settings: K. pneumoniae CCM 4415, 95% growth inhibition, 24 h, read-out: MIC (spectrophotometric detection, 530 nm)
[4] = test system: Staphylococcus epidermidis CCM 4418 (ATCC 12228); settings: S. epidermidis CCM 4418, 95% growth inhibition, 24 h, read-out: MIC (spectrophotometric detection, 530 nm)

O=C(O)c1cn(C2CC2)c2cc(N3CCNCC3)c(F)cc2c1=O [CIP, ciprofloxacin, reference compound]
MIC [1]: 0.773 µM (≈ 0.256 µg/mL)
MIC [2]: 0.773 µM (≈ 0.256 µg/mL)
MIC [3]: 0.193 µM (≈ 0.0639 µg/mL)
MIC [4]: 0.773 µM (≈ 0.256 µg/mL)
